This note sets out measurements from paper PMC11515916.

Sequences of proteins named here, by UniProt entry; tags and fusion partners are left off. A change or cut given only in a name is not applied to a line headed by its entry.
UniProt P84022: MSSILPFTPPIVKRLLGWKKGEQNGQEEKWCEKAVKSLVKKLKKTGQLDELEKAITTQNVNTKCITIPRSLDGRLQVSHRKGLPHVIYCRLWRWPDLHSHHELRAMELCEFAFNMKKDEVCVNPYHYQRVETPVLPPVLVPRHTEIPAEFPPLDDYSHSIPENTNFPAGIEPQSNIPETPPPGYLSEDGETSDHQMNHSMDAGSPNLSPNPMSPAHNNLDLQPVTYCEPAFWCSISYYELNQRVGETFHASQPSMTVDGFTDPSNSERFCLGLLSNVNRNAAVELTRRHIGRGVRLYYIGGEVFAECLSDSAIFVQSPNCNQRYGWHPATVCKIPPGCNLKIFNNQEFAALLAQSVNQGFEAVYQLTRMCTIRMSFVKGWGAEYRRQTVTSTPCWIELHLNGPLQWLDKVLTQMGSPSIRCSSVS
UniProt P17098: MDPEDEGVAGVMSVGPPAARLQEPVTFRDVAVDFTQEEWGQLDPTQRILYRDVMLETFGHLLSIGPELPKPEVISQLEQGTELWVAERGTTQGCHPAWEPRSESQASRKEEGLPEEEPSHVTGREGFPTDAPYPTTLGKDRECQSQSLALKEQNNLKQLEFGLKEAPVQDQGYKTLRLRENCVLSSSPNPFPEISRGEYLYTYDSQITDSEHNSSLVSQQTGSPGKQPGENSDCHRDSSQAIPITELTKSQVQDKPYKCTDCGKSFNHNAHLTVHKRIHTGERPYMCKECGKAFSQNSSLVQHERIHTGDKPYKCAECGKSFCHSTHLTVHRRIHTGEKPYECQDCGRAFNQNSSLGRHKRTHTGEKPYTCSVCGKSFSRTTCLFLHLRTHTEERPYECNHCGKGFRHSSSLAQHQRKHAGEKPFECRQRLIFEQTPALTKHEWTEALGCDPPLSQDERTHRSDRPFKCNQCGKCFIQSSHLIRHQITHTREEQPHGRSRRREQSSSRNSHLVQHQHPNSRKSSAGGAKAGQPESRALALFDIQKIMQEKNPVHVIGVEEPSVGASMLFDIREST

The assay addresses Smad3 (endogenous) (human (endogenous in MDA-MB-231, MCF-7, T47D)) (UniProt P84022). In words: affinity purification with mass spectrometry; MDA-MB-231 nuclear lysates incubated with anti-Smad3 antibodies or normal IgG, protein A/G agarose, washed with NETN buffer, LC-MS/MS; SAINT score ≥ 0.9.

No constants are given. Whether binding was seen depends on the method and setting. In cells and extracts the contact can be indirect. These calls come from enrichment with a bait or labelling near it, and not all partners need be listed.

Turning to “ZNF8 (endogenous) (from UniProt P17098 1-575)”, the binding result is reported as “binds”.

B1: SKIL (protein, UniProt P12757 1-684)
chain: MENLQTNFSLVQGSTKKLNGMGDDGSPPAKKMITDIHANGKTINKVPTVKKEHLDDYGEAPVETDGEHVKRTCTSVPETLHLNPSLKHTLAQFHLSSQSSLGGPAAFSARHSQESMSPTVFLPLPSPQVLPGPLLIPSDSSTELTQTVLEGESISCFQVGGEKRLCLPQVLNSVLREFTLQQINTVCDELYIYCSRCTSDQLHILKVLGILPFNAPSCGLITLTDAQRLCNALLRPRTFPQNGSVLPAKSSLAQLKETGSAFEVEHECLGKCQGLFAPQFYVQPDAPCIQCLECCGMFAPQTFVMHSHRSPDKRTCHWGFESAKWHCYLHVNQKYLGTPEEKKLKIILEEMKEKFSMRSGKRNQSKTDAPSGMELQSWYPVIKQEGDHVSQTHSFLHPSYYLYMCDKVVAPNVSLTSAVSQSKELTKTEASKSISRQSEKAHSSGKLQKTVSYPDVSLEEQEKMDLKTSRELCSRLDASISNNSTSKRKSESATCNLVRDINKVGIGLVAAASSPLLVKDVICEDDKGKIMEEVMRTYLKQQEKLNLILQKKQQLQMEVKMLSSSKSMKELTEEQQNLQKELESLQNEHAQRMEEFYVEQKDLEKKLEQIMKQKCTCDSNLEKDKEAEYAGQLAELRQRLDHAEADRQELQDELRQEREARQKLEMMIKELKLQILKSSKTAKE
As for B1, the binding result is “binds”.

B2: PSPC1 (protein, UniProt Q8WXF1 1-523)
chain: MMLRGNLKQVRIEKNPARLRALESAVGESEPAAAAAMALALAGEPAPPAPAPPEDHPDEEMGFTIDIKSFLKPGEKTYTQRCRLFVGNLPTDITEEDFKRLFERYGEPSEVFINRDRGFGFIRLESRTLAEIAKAELDGTILKSRPLRIRFATHGAALTVKNLSPVVSNELLEQAFSQFGPVEKAVVVVDDRGRATGKGFVEFAAKPPARKALERCGDGAFLLTTTPRPVIVEPMEQFDDEDGLPEKLMQKTQQYHKEREQPPRFAQPGTFEFEYASRWKALDEMEKQQREQVDRNIREAKEKLEAEMEAARHEHQLMLMRQDLMRRQEELRRLEELRNQELQKRKQIQLRHEEEHRRREEEMIRHREQEELRRQQEGFKPNYMENREQEMRMGDMGPRGAINMGDAFSPAPAGNQGPPPMMGMNMNNRATIPGPPMGPGPAMGPEGAANMGTPMMPDNGAVHNDRFPQGPPSQMGSPMGSRTGSETPQAPMSGVGPVSGGPGGFGRGSQGGNFEGPNKRRRY
As for B2, the binding result is given as “binds”.
